This is one part of the list. These are further read-outs of the screen, such as a control signal, another cell line or another target. No call is given for them. Compounds called inactive in the main read-out are mostly missing here. Potencies come from curve fits of mixed quality, noted in brackets.
Test: qHTS Assay for Modulators of Lamin A Splicing
Conditions: HeLa LMNA splicing GFP/RFP minigene ratio, 48 h
Method in brief: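 Read-out is the ratio of GFP to DsRed2 object intensity, acquired by 488 nm laser-scanning cytometry on HeLa lamin A-EGFP minigene reporter cells. Compound incubation 48 hrs at 37 °C in Opti-MEM with 2% FBS; DMSO 0.5% final.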

[1] = measured here: RFP viability control channel
[2] = measured here: GFP splicing reporter channel

SMILES	AC50 [1]	AC50 [2]
CCOc1cccc(CC(=O)N2CCc3c([nH]c4ccccc34)C2c2ccc(OC)cc2)c1OCC (stereo not drawn)	10 µM [rising, partial curve]	–
COc1ccc(C)cc1S(=O)(=O)N(CC(=O)Nc1cccc([N+](=O)[O-])c1)c1ccc(C)cc1	0.00501 µM [falling, full curve, poor fit]	0.00501 µM [falling, full curve, poor fit]
Cc1ccccc1NC1=NS(=O)(=O)c2ccccc21	3.98 µM [falling, partial curve]	–
Cc1ccc(S(=O)(=O)Oc2ccc(/C=C(/NC(=O)c3ccccc3)C(=O)O)cc2)cc1	10 µM [rising, partial curve]	–
COc1ccc(-c2c(C)nn3c(C(F)(F)F)cc(C)nc23)cc1OC	0.794 µM [falling, partial curve, poor fit]	–
CCCOc1cc(C)c(S(=O)(=O)n2ccc(C)n2)cc1C	14.1 µM [rising, partial curve]	2.24 µM [rising, full curve, poor fit]
CC(NC(=O)c1ccc([N+](=O)[O-])cc1[N+](=O)[O-])c1ccc(-c2ccccc2)cc1 (stereo not drawn)	15.8 µM [rising, single point]	17.8 µM [rising, single point]
CC(=O)Oc1ccc(N(C(C)=O)S(=O)(=O)c2cccs2)c2ccccc12	5.62 µM [falling, single point]	–
COc1ccc(C(=O)NCC(c2cccnc2)N2CCN(c3ccccc3F)CC2)cc1OC (stereo not drawn)	0.398 µM [falling, full curve, poor fit]	–
CCOc1ccc(C(c2c(NC(=O)c3ccccc3)sc(C)c2C)N2CCN(CCO)CC2)cc1 (stereo not drawn)	28.2 µM [falling, single point]	22.4 µM [falling, single point]
CC(=O)Oc1cccc(N2C(=O)c3ccc(C(=O)Nc4c[nH]c(=O)[nH]c4=O)cc3C2=O)c1	35.5 µM [rising, partial curve]	1.12 µM [rising, partial curve]
O=S(=O)(NCc1ccccc1F)NCc1ccccc1F	5.62 µM [falling, full curve, poor fit]	3.98 µM [falling, full curve, poor fit]
NS(=O)(=O)c1cc2c(cc1Cl)N[C@@H](CC1CCCC1)NS2(=O)=O	1.58 µM [falling, full curve, poor fit]	–
O=C(Nc1cccc(S(=O)(=O)NCc2ccco2)c1)c1cc(-c2ccccc2)nc2ccccc12	35.5 µM [rising, single point]	–
CCCc1cc(=O)[nH]c(SCc2nc3ccc([N+](=O)[O-])cc3[nH]2)n1	22.4 µM [rising, partial curve, poor fit]	–
Cc1ccc(-n2c3c(cc(C(=O)NCc4ccco4)c2=O)C(=O)CCC3)cc1	–	0.0112 µM [falling, full curve, poor fit]
CCOC(=O)n1cc(-c2cnc(CNC(=O)C(C)(c3ccccc3)c3ccccc3)o2)c2ccccc21	5.01 µM [rising, partial curve]	–
Cc1onc(-c2ccccc2Cl)c1C(=O)OCC(=O)Nc1ccc2c(c1)OCO2	17.8 µM [rising, single point]	11.2 µM [rising, partial curve]
COc1ccc(Cl)cc1N(C)C(=O)CCNC(=O)Cn1cnc2ccccc2c1=O	35.5 µM [rising, single point]	–
Oc1ccc2ccccc2c1/C=N/c1nc2c(s1)CCCC2	14.1 µM [rising, single point]	–
COc1ccc2[nH]c(-c3ccc(C)cc3)cc(=O)c2c1	14.1 µM [rising, single point]	–
Cc1ccn2c(Nc3ccc4c(c3)OCO4)c(-c3ccccn3)nc2c1	7.94 µM [rising, partial curve]	–
Cc1ccsc1C1Nc2ccc3ncccc3c2C2=C1C(=O)CC(C)(C)C2 (stereo not drawn)	7.08 µM [falling, full curve]	7.08 µM [falling, full curve]
COc1ccc(C(=O)CN2CC(C)SC2=Nc2ccc(Cl)cc2)cc1 (stereo not drawn)	0.0355 µM [rising, full curve, poor fit]	–
NC(=O)CC[C@@H]1NC(=O)[C@H](Cc2ccc(O)cc2)NC(=O)c2cc([N+](=O)[O-])cc(F)c2OCC[C@@H](C(N)=O)NC1=O	35.5 µM [rising, single point]	–
Cn1c(=O)n(CCCOc2ccc(Br)cc2)c2ccccc21	–	11.2 µM [rising, partial curve, poor fit]
NCCCS(=O)(=O)O	0.794 µM [rising, full curve, poor fit]	4.47 µM [rising, partial curve, poor fit]

Nothing new here: entries from further up.
SMILES	AC50 [1]	AC50 [2]
CC(NC(=O)c1ccc([N+](=O)[O-])cc1[N+](=O)[O-])c1ccc(-c2ccccc2)cc1 (stereo not drawn)	15.8 µM [rising, single point]	17.8 µM [rising, single point]
CC(=O)Oc1ccc(N(C(C)=O)S(=O)(=O)c2cccs2)c2ccccc12	5.62 µM [falling, single point]	–
COc1ccc(C(=O)NCC(c2cccnc2)N2CCN(c3ccccc3F)CC2)cc1OC (stereo not drawn)	0.398 µM [falling, full curve, poor fit]	–
CCOc1ccc(C(c2c(NC(=O)c3ccccc3)sc(C)c2C)N2CCN(CCO)CC2)cc1 (stereo not drawn)	28.2 µM [falling, single point]	22.4 µM [falling, single point]
CC(=O)Oc1cccc(N2C(=O)c3ccc(C(=O)Nc4c[nH]c(=O)[nH]c4=O)cc3C2=O)c1	35.5 µM [rising, partial curve]	1.12 µM [rising, partial curve]
O=S(=O)(NCc1ccccc1F)NCc1ccccc1F	5.62 µM [falling, full curve, poor fit]	3.98 µM [falling, full curve, poor fit]
NS(=O)(=O)c1cc2c(cc1Cl)N[C@@H](CC1CCCC1)NS2(=O)=O	1.58 µM [falling, full curve, poor fit]	–
O=C(Nc1cccc(S(=O)(=O)NCc2ccco2)c1)c1cc(-c2ccccc2)nc2ccccc12	35.5 µM [rising, single point]	–
CCCc1cc(=O)[nH]c(SCc2nc3ccc([N+](=O)[O-])cc3[nH]2)n1	22.4 µM [rising, partial curve, poor fit]	–
Cc1ccc(-n2c3c(cc(C(=O)NCc4ccco4)c2=O)C(=O)CCC3)cc1	–	0.0112 µM [falling, full curve, poor fit]
CCOC(=O)n1cc(-c2cnc(CNC(=O)C(C)(c3ccccc3)c3ccccc3)o2)c2ccccc21	5.01 µM [rising, partial curve]	–
Cc1onc(-c2ccccc2Cl)c1C(=O)OCC(=O)Nc1ccc2c(c1)OCO2	17.8 µM [rising, single point]	11.2 µM [rising, partial curve]
COc1ccc(Cl)cc1N(C)C(=O)CCNC(=O)Cn1cnc2ccccc2c1=O	35.5 µM [rising, single point]	–
Oc1ccc2ccccc2c1/C=N/c1nc2c(s1)CCCC2	14.1 µM [rising, single point]	–
COc1ccc2[nH]c(-c3ccc(C)cc3)cc(=O)c2c1	14.1 µM [rising, single point]	–

Going on with the list.

SMILES	AC50 [1]	AC50 [2]
CCOC(=O)N1CCN(Cc2nc3cc(NC(=O)c4ccccc4OC)ccc3n2C(C)C)CC1	2.51 µM [rising, full curve]	8.91 µM [rising, single point]
O=[N+]([O-])c1cccc(-c2csc(CS(=O)(=O)Cc3ccco3)n2)c1	–	0.00562 µM [rising, full curve, poor fit]
CCN(CC)S(=O)(=O)c1ccc2c(c1)c(=O)c(C(=O)NCc1ccc3c(c1)OCO3)cn2C	0.1 µM [rising, full curve, poor fit]	–
COC(=O)C1=C(C(=O)OC)[C@@H]2N(C)c3ccc(OC)cc3[C@@]23C[C@@H](C(=O)OC)N(C(=O)c2cccs2)C3=N1	–	0.355 µM [falling, partial curve, poor fit]
COc1ccc2[nH]c(=O)c(CN(CCCN(C)C)C(=O)Nc3ccc(F)cc3)cc2c1	12.6 µM [rising, single point]	–
CN(C)/C=C1\C(=O)NN=C1c1ccccc1	0.158 µM [falling, full curve, poor fit]	0.282 µM [falling, full curve]
OCC1(Cc2ccc(Cl)cc2)CCN(CC2CC=CCC2)CC1 (stereo not drawn)	28.2 µM [falling, partial curve]	31.6 µM [falling, partial curve]
O=C1COc2ccc(C(=O)COC(=O)c3cnc(Cl)c(Cl)c3)cc2N1	–	0.501 µM [falling, partial curve, poor fit]
CCCc1nn(C)c(C(=O)Nc2ccc3ccccc3c2)c1Cl	22.4 µM [rising, single point]	–
Cc1nc(CC(=O)N2CCN(c3cccc(C)c3C)CC2)cs1	35.5 µM [rising, single point]	35.5 µM [rising, single point]
COc1ccc(C)cc1NC(=O)C(=O)NCc1ccncc1	31.6 µM [rising, single point]	–
O=c1[nH]c(CSc2nc3ccccc3[nH]2)nc2c1cnn2-c1ccccc1	10 µM [rising, partial curve]	–
CCCCNC(=O)CC1S/C(=N/N=C/c2ccc(OC)cc2)NC1=O (stereo not drawn)	–	0.251 µM [rising, full curve, poor fit]
CCn1nnc(NC(=O)c2ccc(-c3ccc(Cl)cc3)o2)n1	0.562 µM [rising, full curve, poor fit]	–
CCN1CCN(CCCN(Cc2ccco2)C(=S)Nc2ccc(Cl)cc2)CC1	0.00501 µM [falling, full curve, poor fit]	0.00891 µM [falling, full curve, poor fit]
CC(C)c1ccccc1OCCNC(=O)c1cccnc1	17.8 µM [rising, single point]	–
O=C(c1n[nH]c(=O)c2ccccc12)N1CCN(c2ccccc2)CC1	4.47 µM [falling, full curve, poor fit]	5.62 µM [falling, full curve, poor fit]
Cc1ccc(-n2cnc3cc(C(=O)NCc4ccccc4Cl)ccc32)c(C)c1	0.00562 µM [falling, full curve, poor fit]	7.08 µM [falling, full curve]
Cc1cccc(Cn2cccc2CNS(=O)(=O)c2ccc(C)c(C)c2)c1	2.24 µM [falling, partial curve]	2.51 µM [falling, partial curve]
CCN(CC)CCN1C(=O)c2oc3ccccc3c(=O)c2C1c1ccc(C)cc1 (stereo not drawn)	31.6 µM [rising, single point]	–
Cc1cccc(NS(=O)(=O)c2ccc3nc(-c4ccccc4)[nH]c3c2)c1C	17.8 µM [rising, partial curve, poor fit]	–
COc1ccc(-n2c(=O)c3ccccc3n(CC(=O)NCc3ccco3)c2=O)cc1	39.8 µM [falling, partial curve, poor fit]	0.708 µM [falling, single point]
O=C1CC(C(=O)NCc2ccccc2)C2(CCCC2)O1 (stereo not drawn)	5.01 µM [falling, full curve, poor fit]	–
CCOC(=O)c1ccccc1NS(=O)(=O)c1ccc(S(=O)(=O)N2CCCC2)cc1	20 µM [rising, single point]	–
CC1CCN(C(=O)/C(=C\c2cccs2)NC(=O)c2ccccc2)CC1	10 µM [falling, partial curve]	8.91 µM [falling, single point]
COc1ccc(C(=O)C(CN2CCOCC2)c2ccccc2)cc1 (stereo not drawn)	22.4 µM [falling, partial curve]	3.16 µM [falling, full curve]

From PubChem BioAssay AID1487 (National Center for Advancing Translational Sciences (NCATS), 2009)
